Percent effect of library compounds

By UniProt entry, the sequences of proteins in these tests, tags left out.
UniProt P9WFT3, whole entry: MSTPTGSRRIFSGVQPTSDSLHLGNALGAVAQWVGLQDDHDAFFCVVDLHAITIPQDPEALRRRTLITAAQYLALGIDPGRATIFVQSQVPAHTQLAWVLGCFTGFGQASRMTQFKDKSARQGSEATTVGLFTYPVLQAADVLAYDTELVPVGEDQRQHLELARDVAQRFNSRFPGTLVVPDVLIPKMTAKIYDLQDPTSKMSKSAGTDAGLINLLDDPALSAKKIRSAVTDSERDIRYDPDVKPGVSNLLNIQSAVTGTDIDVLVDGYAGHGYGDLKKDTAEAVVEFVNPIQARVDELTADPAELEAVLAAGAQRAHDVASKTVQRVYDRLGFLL

Each number is a percent effect as filed. The record does not define 0% and 100%; most values in the screen are far below 50% and negative numbers occur (in some assays of this library far below -100). Compounds were drawn at random from those tested, without regard to their results. Two or more numbers in one place are separate tests of the same structure; such repeats can differ widely. A dash means the value is not listed here; it may have been measured.

Leishmania in macrophages: 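Cell assay of Leishmania donovani living inside macrophages; the read-out is not stated. Tested at 30 µM. Direction is inferred from retests: higher values go with stronger inhibition. Size under these conditions: about 69,000 compounds, about 1,000 of them at 50% or above in at least one test.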
MtTrpRS: 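Enzyme assay of tryptophanyl-tRNA synthetase; the read-out is not stated. Target: Tryptophan-tRNA ligase, Mycobacterium tuberculosis (UniProt P9WFT3). Compounds at 10 µM. Direction is not recorded; retested compounds ran higher, which suggests that high means inhibition. About 65,000 compounds were tested under these conditions; 0.098% (about 64) showed 50% or more at least once.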
T. brucei: 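Whole-parasite assay of Trypanosoma brucei over 72 hours; the read-out is not stated. Tested at 30 µM. Direction is inferred from retests: higher values go with stronger inhibition. Values scatter widely below zero; nearly all retest evidence comes from the higher of the two concentrations used. Of about 64,000 compounds tested this way, about 940 (1.5%) reached 50% or more in at least one test.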

SMILES,Leishmania in macrophages,MtTrpRS,T. brucei
Cc1nc(C)n(CC2CCCN2Cc2nc(-c3cccs3)no2)n1 (stereo unspecified),1.977,-0.4717,-21.92
CCN(CC)C(=O)N1CCOCC1c1c(C)nn(C)c1C (stereo unspecified),4.869,0.2463,-8.9
CCc1nc(N2CCCC(O)(CO)CC2)ncc1C (stereo unspecified),18.94,-5.596,-37.17
O=C1CC(C(=O)NCCN2CCOC2=O)c2cc(F)ccc2N1 (stereo unspecified),11.68 and -28.52,2.81,-6.937
CCC(=O)NCc1ccc(N2CCCCC2)cc1,4.495,1.051,-20.69
Cc1cc(C)c(C(=O)N2CCOC(c3cccs3)C2)c(=O)[nH]1 (stereo unspecified),14.24,0.9091,0.1518
CCOc1ccnc(N2CCN(Cc3ncccc3C)CC2)n1,-2.446,-0.09671,-29.91
CN1C(=O)CCC12CCCN(C(=O)c1ccoc1)C2 (stereo unspecified),16.64 and 8.476,-7.4,-4.164
Cc1nc(CN2CCc3nc(NC(C)C)nc(C)c3C2)cs1,4.033,1.453,1.176
O=C(O)C(F)(F)F.O=C(c1cnoc1)N1CCC[C@]2(C[C@@H](OCc3ccccn3)CO2)C1,22.38,-,11.55
NC(=O)C1CCN(C(=O)NCc2ccc(-c3ccn[nH]3)cc2)CC1,24.18,-4.475,-25.22
Cc1nc(C)c(CNCc2nnc3n2CCCC3C(F)(F)F)s1 (stereo unspecified),15.07,-4.755,-9.686
OCCn1cc(CN2CCN(CCOc3ccc(F)cc3)CC2)cn1,32.24,-1.451,-
CC(C)(C)CN(CCC#N)Cn1cc(Cl)cn1,7.656,-2.037,-1.657
[H][C@@]12CCN(c3nc(-c4ccncc4)nc4c3cnn4C)C[C@@]([H])(CC1)N2C,27.15,-,-1.704
[H][C@]12CCN(c3ncccn3)[C@@]1([H])CC[C@@H](COCc1ccccn1)O2,18.36,-,-21.7
Cc1cc(C)c(CNC(=O)N2CCN(c3ncccn3)CC2)c(=O)[nH]1,-5.034,1.258,8.869
O=C(NCCC1=CCCCC1)NC1CCCc2c1cnn2CCO (stereo unspecified),14.43,1.81,-0.3597
Cl.Cl.Cn1cnc2c(N3CCCC3)nc(C3CCNCC3)cc21,33.04,-,18.84
Cc1nc(C)c(C(=O)N2C[C@@H](C(=O)O)[C@H](C3CC3)C2)s1,26.76,-4.918,-41.85
CNS(=O)(=O)c1ccc(C(=O)NC2CCOc3ccccc32)o1 (stereo unspecified),-8.143,2.436,19.56
CN(C)C(=O)NCc1cc2n(n1)CCCN(CC1CCCNC1)C2 (stereo unspecified),-10.3,3.261,-12.84
Cc1ccc(CN2CCOC3(CCCN(C(=O)c4ccco4)C3)C2)s1 (stereo unspecified),-,1.408,-
CCCN1CCC(Cc2nn3c(C(C)C)nnc3s2)CC1,-6.83,43.51,-49.43
NC(=O)C1CN(c2ccc3c(Cl)ccnc3c2F)CCO1 (stereo unspecified),-3.32,1.238,-30.02
Cc1cc(NC(=O)CCn2cncn2)no1,21.98,3.295,-53.3
COc1cc(C)nc(N2CCN(C(=O)CCn3cc(C)cn3)CC2)n1,7.937,1.18,-45.42
Cc1nc(CN(C)C2CCN(Cc3nc4ccccc4s3)C2)no1 (stereo unspecified),-11.7,0.09747,13.35
O=c1[nH]c2nc(N3CCSCC3)ncc2c(=O)n1-c1cccc(F)c1,25.69,-1.801,-9.134
Cc1noc(C2CCCN(C(=O)CCCNc3ncccn3)C2)n1 (stereo unspecified),-32,0.1337,-5.279
COc1cc2c(cc1OC)S(=O)(=O)N(Cc1cnn(C)c1)C2=O,14.34,3.302,-24.75
COCCn1ccc(=O)c(OCC(=O)Nc2ccc(OC)c(Cl)c2)c1C,0.333,2.799,6.678
CN1CC2(CCCN(CCOCc3ccccc3)C2)OC1=O (stereo unspecified),47.07,5.148,-14.47
CCn1c(CN2CCN(C(=O)C3CCC3)CC2)nc2c(F)cccc21,2.408,-4.08,5.424
Cc1cccc(COc2ccc(C(C)N)cc2)c1.Cl (stereo unspecified),46.15,-,102.3
COc1cccc(N2CCN(C(=O)[C@H](O)C3CCCCC3)CC2=O)c1,16.05,2.399,-5.684
Cc1nc(N2CCN(C(=O)c3ccc(O)cc3)CC2)c2cnn(C)c2n1,26.18,-2.113,-10.9
Cc1cn(CC(=O)NC2CCN(C(C)C)CC2)c2ccccc12,11.69,-2.308,-23.36
NC(=O)C1CCN(C(C(=O)O)c2ccc(Cl)c(C(F)(F)F)c2)CC1 (stereo unspecified),-9.014,11.43,-237.3
O=C(O)C(F)(F)F.[H][C@@]12CN(Cc3ccsc3)CCO[C@]1([H])CN(C(=O)C1CC=CC1)C2,48.58,-,-19.23
O[C@@H]1CN(c2noc(C3CC3)n2)CC[C@H]1c1ccc2ccccc2c1,33.56,1.201,-17.74
Cc1cccc(OC2CN(C(=O)c3cnn(C)c3)C2)c1,-24.97,14.35,-16.45
Cc1nc(C)n(C2CCCN(C(=O)c3c[nH]c(C(C)C)n3)C2)n1 (stereo unspecified),-3.964,-2.401,-21.43
COCCC(=O)NCCCOC1CCCc2ccccc21 (stereo unspecified),-4.197,-3.067,-39.65
NCC1CCCN(c2nc(-c3ccccc3)nc3c2CCNCC3)C1 (stereo unspecified),17.41,-1.481,-40.85
COCC(=O)N1Cc2nccn2CC(COc2cccnc2)C1 (stereo unspecified),-5.99,-4.344,-10.4
O=C(O)c1ccnc(-c2ccnc(N3CCCCCC3)n2)c1,21.12,1.826,-8.329
COCCCN(C)C(=O)c1cccc(Nc2cnccn2)c1,-6.076,-2.087,-20.45
N#Cc1c(F)cccc1N1CCC(NS(=O)(=O)c2cccs2)CC1,16.25,-6.629,-85.12
NC(=O)CN1CCCN(C(=O)Cc2ccc3c(c2)OCCO3)CC1,10.13,-4.946,-5.853
CC(C)c1noc(C(C)N2CCN(Cc3noc(C4CC4)n3)CC2)n1 (stereo unspecified),24.86,4.866,-46.15
Cl.c1cc(CNCc2ccc3c(c2)CCO3)cc(N2CCOCC2)n1,15.24,-,-16.05
NC(=O)Cn1ccc(NC(=O)C2(c3ccc(F)cc3)CC2)n1,2.859,-2.741,-54.48
Cc1nccc(CN2Cc3nccn3CC2c2ccccc2)n1 (stereo unspecified),-44.61,-3.068,-14.09
CN(Cc1cc2ccccc2o1)S(C)(=O)=O,20.29,-4.528,-21.86
COCCN(Cc1ccc(F)cc1Cl)C(=O)c1c(C)noc1C,17.75,-2.028,-63.85
Cc1nc(C)n(CC2CN(CCOc3ccccc3F)CCO2)n1 (stereo unspecified),4.831,-0.2534,-7.348
CC1c2ncc(Cn3cncn3)n2CCN1CC1CCOCC1 (stereo unspecified),-,6.649,-
CC(=O)N1CCN(C(=O)CCNc2snc(Cl)c2C#N)CC1,6.144,-4.871,-13.74
CCSc1ccc(C(=O)Nc2c(C)nn(C(C)C)c2C)cn1,-4.369,-0.4112,-16.9
Cc1cnn(CC2CN(CC(=O)NCc3ccc(C)s3)CCO2)c1 (stereo unspecified),13.27,-2.556,-8.874
CCN(CC)Cc1ccc(C(=O)N2CCCC2Cn2cccn2)cc1 (stereo unspecified),26.88,-4.451,-
CC(OCc1ccccc1)C(=O)NC1CCN(CC(N)=O)CC1 (stereo unspecified),21.11,-7.022,-70.09
CNc1ncc2c(n1)CN(C1CC(C)(C)NC(C)(C)C1)C2=O,57.04,-2.202,8.017
COC(=O)NCC(=O)N1CCC(c2cc3ccccc3[nH]2)CC1,11.64,-2.857,-67.6
Cc1nn(C2CCCC2)c2nc(C(C)(C)CN3CCN(C)CC3)[nH]c12,45.06,1.211,5.123
Cc1ccc(S(=O)(=O)NC(=O)CCc2cscn2)cc1Cl,-24.07,-0.7168,-
O=C(O)C(F)(F)F.O=C(O)C(F)(F)F.O=C(O)C(F)(F)F.[H][C@@]12CN(Cc3cccnc3)CCO[C@]1([H])CN(Cc1ccccc1F)C2,19.78,-,-31.94
CCOc1cccc(C2CC(=O)NCc3nc(N4CCCC4)sc32)c1 (stereo unspecified),15.13,10.28,-46.56
O=C(CCn1c(C(F)F)cc2cccnc21)NC1CCCCC1,14.81,-6.431,-13.7

For reference, 7 entries once more:

Result for CCC(=O)NCc1ccc(N2CCCCC2)cc1 was Leishmania in macrophages: 4.495%; MtTrpRS: 1.051%; T. brucei: -20.69%.
Result for CCc1nc(N2CCCC(O)(CO)CC2)ncc1C (stereo unspecified) was Leishmania in macrophages: 18.94%; MtTrpRS: -5.596%; T. brucei: -37.17%.
Result for O=C(O)C(F)(F)F.O=C(c1cnoc1)N1CCC[C@]2(C[C@@H](OCc3ccccn3)CO2)C1 was Leishmania in macrophages: 22.38%; T. brucei: 11.55%.
Result for CC1c2ncc(Cn3cncn3)n2CCN1CC1CCOCC1 (stereo unspecified) was MtTrpRS: 6.649%.
Result for CC(C)c1noc(C(C)N2CCN(Cc3noc(C4CC4)n3)CC2)n1 (stereo unspecified) was Leishmania in macrophages: 24.86%; MtTrpRS: 4.866%; T. brucei: -46.15%.
Result for COCCN(Cc1ccc(F)cc1Cl)C(=O)c1c(C)noc1C was Leishmania in macrophages: 17.75%; MtTrpRS: -2.028%; T. brucei: -63.85%.
Result for COc1cc(C)nc(N2CCN(C(=O)CCn3cc(C)cn3)CC2)n1 was Leishmania in macrophages: 7.937%; MtTrpRS: 1.18%; T. brucei: -45.42%.

The values are deposited in ChEMBL (CHEMBL3988442, “University of Dundee, Small-Polar-MMV Screening Library” (2021)).